Taken from: PubChem BioAssay AID1259254 (NCATS, 2017)
This is a random part of about 59,000 reagents tested. In the full data, about 1,550 (2.6%) are marked active. 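G2 share is only a proxy for re-replication; each gene was hit by three separate siRNAs, and active genes were retested.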 Unmarked entries are inactive. Reagents against one gene are numbered here. Not all columns of the deposit are shown. Reagent sequences are not shown. Not stated in the record: the amount of reagent.

Assay: 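Gene knock-downs that lead to re-replication, shown by excess G2 DNA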 (primary screen)
Cell system: human HCT116 colorectal cancer cells
Knock-down reagent: single siRNA against human genes
Time to read-out: 3 days
Detection: 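Imaged Hoechst DNA stain sorts each cell into a cycle phase by DNA amount; per plate, G2 fraction set to 0% for non-targeting and 100% for GMNN siRNA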
Reading the numbers: G2 robust z-score and G2 cells, % of GMNN control: higher = more G2 cells, more excess DNA replication
Rule for the call: 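An siRNA counts as active if its G2 robust z-score lies at least 5 MADs above the screen median; here such calls match roughly 38% of GMNN control or more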

Knock-down of URGCP #1 came out at: G2 robust z-score 8.8 (active); G2 cells, % of GMNN control 64.9.
With knock-down of URGCP #2, the screen gave G2 robust z-score -0.0169; G2 cells, % of GMNN control 2.85.
URGCP #3 scored G2 robust z-score -0.0762; G2 cells, % of GMNN control 2.43.
Silencing of ZNF791 #1 resulted in: G2 robust z-score 0.254; G2 cells, % of GMNN control 4.75.
Against ZNF791 #2, the values are G2 robust z-score 0.338; G2 cells, % of GMNN control 5.35.
ZNF791 #3 scored G2 robust z-score -0.231; G2 cells, % of GMNN control 1.34.
Knock-down of ZNF784 #1 gave: G2 robust z-score -0.42; G2 cells, % of GMNN control 0.0125.
Knock-down of ZNF784 #2 gave: G2 robust z-score -1.01; G2 cells, % of GMNN control -4.14.
After knock-down of ZNF784 #3, the screen gave G2 robust z-score -0.267; G2 cells, % of GMNN control 1.09.
GRHPR #1 scored G2 robust z-score 4.7; G2 cells, % of GMNN control 36.
GRHPR #2 scored G2 robust z-score 1.53; G2 cells, % of GMNN control 13.7.
After knock-down of GRHPR #3, the record shows G2 robust z-score -0.159; G2 cells, % of GMNN control 1.85.
For LCLAT1 #1 the deposit lists G2 robust z-score 0.155; G2 cells, % of GMNN control 4.06.
Against LCLAT1 #2, the entry reads G2 robust z-score 1.56; G2 cells, % of GMNN control 14.
Knock-down of LCLAT1 #3 gave: G2 robust z-score 0.858; G2 cells, % of GMNN control 9.
CNFN #1 showed G2 robust z-score 0.783; G2 cells, % of GMNN control 8.48.
Against CNFN #2 the deposit lists G2 robust z-score -0.988; G2 cells, % of GMNN control -3.99.
CNFN #3 scored G2 robust z-score 1.93; G2 cells, % of GMNN control 16.6.
Against DHH #1 the deposit lists G2 robust z-score -1.23; G2 cells, % of GMNN control -5.71.
Knock-down of DHH #2 gave: G2 robust z-score -0.548; G2 cells, % of GMNN control -0.888.
Against DHH #3, the entry reads G2 robust z-score 0.0194; G2 cells, % of GMNN control 3.1.
With knock-down of ZYG11B #1, the record shows G2 robust z-score -0.636; G2 cells, % of GMNN control -1.51.
Knock-down of ZYG11B #2 came out at: G2 robust z-score 0.719; G2 cells, % of GMNN control 8.03.
For ZYG11B #3 the deposit lists G2 robust z-score 1.82; G2 cells, % of GMNN control 15.8.

2 entries from above in another layout:
Gene,reagent,G2 robust z-score,"G2 cells, % of GMNN control"
CNFN,3,1.93,16.6
DHH,1,-1.23,-5.71
